The nature of the experiment: qHTS Assay for Lipid Storage Modulators in Drosophila S3 Cells.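 As to cell number change: cells counted by Cell Tracker Red CMTPX staining in the red channel.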 To be noted: BODIPY lipid droplet fluorescence, 18-24 h; for cell number change: measured here: cell count max response, cells fed with added oleic acid. In short, it runs like this:
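Drosophila S3 cells loaded with oleic acid (400 uM, as added) and compounds at several concentrations; lipid droplets imaged by 488-nm laser-scanning cytometry, 500–530 nm intensity and object ratio to cell channel. Percent activity normalized to 20 uM Triacsin C.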

Setting [1] is: measured here: lipid fluorescence (Fed channel) AC50, cells fed with added oleic acid.
The mark [2] stands for this setting: measured here: cell number channel AC50, cells fed with added oleic acid.

Some of the results follow. Shown are side measurements of this screen, not its main read-out; they come without a call. The list favours compounds with an active or inconclusive main result. The note in brackets gives the kind of curve behind each potency; many fits are weak.

With `CC(C)(C)C(=O)C(Oc1cccc2nonc12)n1cncn1` (stereo not given), the cell number change was -13%.

Turning to `CCOc1cc(CNc2ccccc2SC)ccc1O`, the cell number change is 5.54%. Also, under setting [1], the concentration at half-maximal activity (AC50) is 0.00411 µM [falling, full curve, poor fit].

`Cc1ccc(S(=O)(=O)Nc2cc3c(C(=O)O)c(C)oc3c3ccccc23)c(C)c1`: the cell number change is -2.99%. For the same molecule, the concentration at half-maximal activity (AC50) under setting [1] was 3.66 µM [falling, single point].

Turning to `COc1ccccc1S(=O)(=O)Cc1ccc(C(=O)N2CCN(c3cccc(Cl)c3)CC2)o1`, under setting [1], the concentration at half-maximal activity (AC50) was 0.58 µM [falling, full curve, poor fit].

With `Cc1ccc(N2C(=O)[C@@H]3C(C(=O)CN4C(=O)c5ccccc5C4=O)=NN[C@@H]3C2=O)c(C)c1`, the cell number change was 14.8%. The AC50 under setting [2] was 1.03 µM [rising, full curve, poor fit]. For the same molecule, the AC50 under setting [1] was 0.731 µM [rising, partial curve].

On to `OCC1(Cc2ccccc2)CCN(Cc2cnc(-c3ccc(Cl)cc3)nc2)CC1`, for which the cell number change was -37.5%. The AC50 under setting [2] was 25.9 µM [falling, single point]. Moreover, the AC50 under setting [1] is 18.4 µM [falling, partial curve, poor fit].

For the molecule `Cc1cc(C)c2c(N)c(C(=O)NC3CCCC3)sc2n1`, the cell number change is -2.11%. Under setting [2], the concentration at half-maximal activity (AC50) is 2.06 µM [rising, single point].

Regarding `Cc1cc(C)n(-c2ccc(C(=O)N3CCN(S(=O)(=O)c4ccc(C(C)C)cc4)CC3)cc2)n1`, the cell number change is 0.0705%. Further, the half-maximal activity concentration (AC50) under setting [1] is 1.03 µM [rising, full curve, poor fit].

In the case of `O=[N+]([O-])c1cc(C(F)(F)F)ccc1Sc1ccccn1`, the cell number change was 20.3%. Under setting [1], the AC50 was 11.6 µM [rising, partial curve].

For `c1ccc(CN2CCC(N3CCC(N4CCCCCC4)CC3)CC2)cc1`, the half-maximal activity concentration (AC50) under setting [1] was 0.651 µM [falling, partial curve, poor fit].

As for `CN(CC(=O)NCC(c1ccccc1)N1CCCC1)S(=O)(=O)c1ccc(Cl)cc1` (stereo not given), the cell number change was determined as 14.5%. In addition, the AC50 under setting [1] was 0.13 µM [rising, full curve, poor fit].

Take `C=CCSc1nnc(NC(=O)CSc2ccccn2)s1`: the cell number change was -18%. The AC50 under setting [2] is 0.116 µM [falling, full curve, poor fit].

`Cc1noc(C)c1COc1ccc(C(=O)Nc2nnc(CC(C)C)s2)cc1`: the cell number change was -14.1%. For the same molecule, the AC50 under setting [1] is 2.59 µM [falling, full curve].

Take `OC(CNC1CCCc2ccccc21)COc1c(Cl)cccc1Cl` (stereo not given): the cell number change is -23%. Further, the AC50 under setting [1] was 13 µM [falling, partial curve].

As for `Cc1nc(N2CCCC2)c2nnn(Cc3ccccc3Cl)c2n1`, the cell number change is -19.9%.

Regarding `Cc1ccc(OCCCOc2cccc3cccnc23)cc1C`, the cell number change is -32.6%. Besides, the AC50 under setting [2] is 25.9 µM [falling, single point]. Moreover, under setting [1], the AC50 was 32.6 µM [falling, single point].

Turning to `O=C(NCC(=O)N(Cc1ccccc1)C(C(=O)NCC1CCCO1)c1ccccc1)c1ccco1` (stereo not given), the cell number change was -2.56%.

With `O=C(Nc1cccnc1)c1cc(Br)c(Br)s1`, the cell number change is -38.8%. Besides, the AC50 under setting [2] was 11.6 µM [falling, partial curve]. Also, the AC50 under setting [1] was 0.00461 µM [falling, full curve, poor fit].

With `CCn1ccc(C(=O)Oc2ccc(C(C)C)cc2)n1`, the concentration at half-maximal activity (AC50) under setting [1] is 6.51 µM [falling, single point].

Take `COc1ccc(N/N=C/c2c(C(=O)O)ccc3ccccc23)cc1`: the cell number change was -11.2%. Further, the concentration at half-maximal activity (AC50) under setting [1] is 29.1 µM [falling, single point].

Turning to `CC(C)c1ccc(NC(=O)COc2ccccc2)cc1`, the cell number change was -0.275%.

With `CCCN1CCC(=O)N([C@H](CSc2ccccc2)c2ccccc2)CC1`, the cell number change is -23.6%. Under setting [1], the AC50 was 29.1 µM [falling, single point].

Take `CCn1c(NCCO)nc2c(c1=O)C(C)(CC)Cc1ccccc1-2` (stereo not given): the cell number change was -41%. The concentration at half-maximal activity (AC50) under setting [2] is 6.51 µM [falling, partial curve]. Moreover, the AC50 under setting [1] was 6.51 µM [falling, single point].

Consider `CC(=O)c1c(C)[nH]c(C(=O)CSc2nnc(CN3CCCCCC3=O)n2-c2ccccn2)c1C`, for which the cell number change is -2.52%. The AC50 under setting [1] was 14.6 µM [rising, single point].

As to `CN(Cc1ccccn1)C(=O)c1ccc2nc(Cc3cccc(Cl)c3)oc2c1`, the cell number change was -1.47%. Under setting [1], the AC50 was 29.1 µM [falling, single point].

With `O=C(NC12CC3CC(CC(C3)C1)C2)C1CC(=O)N(c2ccccc2)C1` (stereo not given), the cell number change was -19.2%. Further, under setting [1], the AC50 was 8.2 µM [falling, partial curve].

`NC(=S)N/N=C/c1ccccc1[N+](=O)[O-]`: the cell number change stood at 21.5%. The AC50 under setting [1] was 29.1 µM [rising, single point].

Consider `CC(C)(C)c1cc(NC(=O)c2c(F)cccc2Cl)n(-c2ccccc2)n1`, for which the cell number change was -24.4%.

Take `O=C(OCCN1CCOCC1)c1cccc(F)c1`: the cell number change is -1.01%.

Regarding `CC(C)[C@H](NS(=O)(=O)c1ccccc1)C(=O)OCC(=O)Nc1ccc2c(c1)OCO2`, the cell number change worked out at 25.5%. In addition, under setting [2], the AC50 is 6.51 µM [rising, single point]. Besides, the half-maximal activity concentration (AC50) under setting [1] is 0.13 µM [rising, full curve, poor fit].

Regarding `Cc1cccc(N2CCN(C(=O)c3ccncc3)CC2)c1C`, the cell number change is -20.8%.

For `CNc1ccc2c3c(cccc13)C(=O)N(C)C2=O`, the cell number change was -91.6%. For the same molecule, the AC50 under setting [2] is 8.2 µM [falling, partial curve]. The half-maximal activity concentration (AC50) under setting [1] was 2.06 µM [falling, partial curve, poor fit].

For `COC(=O)c1cc2cc(OC)ccc2n1C`, the cell number change was -15%. The concentration at half-maximal activity (AC50) under setting [1] is 1.16 µM [falling, single point].

As to `Nc1ncnc2nc(SCCC(=O)O)[nH]c12`, the cell number change is -22.7%. Further, under setting [1], the AC50 was 1.46 µM [falling, partial curve].

`C/C(=N\NC(=O)CSCc1ccc(Cl)cc1)c1ccc(NC(=O)c2ccccc2)cc1`: the cell number change is 24.5%. In addition, under setting [1], the AC50 is 0.13 µM [rising, full curve, poor fit].

Take `O=C(CCSc1nnc(-c2ccco2)o1)N1CCOCC1`: the cell number change was -7.51%. Moreover, the AC50 under setting [1] is 29.1 µM [falling, single point].

Turning to `CCOc1ccc(C(=O)CN2CCN(S(=O)(=O)c3ccc(OC)cc3)CC2)cc1`, the AC50 under setting [1] was 29.1 µM [rising, single point].

With `Cc1ccc(OCC(=O)N2CCN(C(=O)c3ccc([N+](=O)[O-])cc3)CC2)cc1`, the cell number change is -18.8%. Besides, the AC50 under setting [1] was 29.1 µM [falling, single point].

Consider `CCOC(=O)CCc1c(C)c2ccc(OCc3nn[nH]n3)c(C)c2oc1=O`, for which the cell number change stood at 0.908%. Further, under setting [1], the AC50 is 0.731 µM [falling, full curve, poor fit].

Regarding `CC(C)C(NC(=O)c1ccccc1)C(=O)OCC(=O)N1CCCCC1` (stereo not given), the cell number change was -1.3%.

With `NS(=O)(=O)c1cc(C(=O)N2CCNC(=O)C2)ccc1Cl`, the cell number change was 22.9%. Further, under setting [2], the half-maximal activity concentration (AC50) is 0.0058 µM [rising, full curve, poor fit].

With `CS(=O)(=O)N(CC(=O)Nc1cccc(Cl)c1)c1ccccc1Cl`, the cell number change came out at 13.5%. For the same molecule, the half-maximal activity concentration (AC50) under setting [2] is 4.11 µM [falling, partial curve, poor fit]. The half-maximal activity concentration (AC50) under setting [1] is 6.51 µM [falling, partial curve, poor fit].

As to `C=C1CCC(OC(C)=O)C2(C)CCC3C(C)C(=O)OC3C12O` (stereo not given), the cell number change turned out to be 5.63%.

Consider `CCCOc1cccc(C(=O)N(Cc2cccs2)C2CCS(=O)(=O)C2)c1` (stereo not given), for which the cell number change was -9.31%.

Take `O=C(O)c1cnc(-c2ccccc2)nc1Sc1ccc(Cl)cc1`: the cell number change was 20.7%.

In the case of `CCOCCCN(C(=O)Cn1nnc(-c2ccc(OC)c(OC)c2)n1)C(CC)C(=O)NC1CCCC1` (stereo not given), the cell number change came to 112%. Further, under setting [2], the half-maximal activity concentration (AC50) was 18.4 µM [rising, single point]. Moreover, the AC50 under setting [1] is 6.51 µM [rising, single point].

Regarding `C=CCN1C(=O)C(O)(CC(=O)c2ccccn2)c2ccccc21` (stereo not given), the AC50 under setting [1] is 29.1 µM [falling, single point].

Turning to `Cc1ccc2sc(N(CCN(C)C)C(=O)c3ccc4ccccc4c3)nc2c1C`, the cell number change is 30.7%. The AC50 under setting [2] was 2.31 µM [rising, full curve].

Turning to `C/C(=N\Nc1ccc(C)c(Cl)c1)c1cccnc1`, the cell number change was -13.5%.

As for `Cc1c(Cl)cccc1NC(=S)NNc1ncc(C(F)(F)F)cc1Cl`, the cell number change was -47.6%. The half-maximal activity concentration (AC50) under setting [2] was 20.6 µM [falling, single point]. In addition, the AC50 under setting [1] was 20.6 µM [falling, single point].

Take `COc1ccc(-c2n[nH]c(C)c2-c2cc(OC)ccc2O)cc1`: the cell number change was 24.1%. Also, the AC50 under setting [2] was 0.184 µM [rising, full curve, poor fit]. Further, the AC50 under setting [1] was 4.11 µM [rising, partial curve].

As for `S=c1[nH]nc(-c2ccc3ccccc3n2)n1Cc1ccccc1`, the cell number change was -48.5%. Moreover, the AC50 under setting [2] is 32.6 µM [falling, partial curve]. Moreover, the AC50 under setting [1] is 0.366 µM [falling, full curve, poor fit].

As to `CC(C)CN(C(=O)COC(=O)CN1C(=O)c2ccccc2C1=O)c1c(N)n(Cc2ccccc2)c(=O)[nH]c1=O`, the cell number change is -6.02%.

On to `O=C(N/N=C/c1ccc(Cl)cc1Cl)c1n[nH]c2c1CCCC2`, for which the cell number change is -4.18%.

Take `O=c1cc(C(F)(F)F)[nH]c2c(C(F)(F)F)cccc12`: the cell number change was -18.6%. For the same molecule, the AC50 under setting [1] was 0.00461 µM [falling, full curve, poor fit].

With `O=C(Cn1cc2c(n1)CCCCC2)NCc1ccccc1`, the cell number change turned out to be 21.3%. In addition, the AC50 under setting [1] is 16.4 µM [rising, partial curve, poor fit].

Turning to `O=C(c1ccccc1Sc1ccc([N+](=O)[O-])cc1Cl)N1CCOCC1`, the cell number change is -5.99%.

As for `O=C(CN1C(=O)NC(Cc2c[nH]c3ccccc23)C1=O)Nc1ccc(F)c(F)c1F` (stereo not given), the cell number change is -0.846%. Also, the AC50 under setting [2] was 0.00461 µM [rising, full curve, poor fit].

In the case of `O=C(N1CCOCC1)N1CCN(c2ccccc2)CC1`, the cell number change was determined as 39.9%. Under setting [2], the AC50 is 25.9 µM [rising, partial curve, poor fit]. Moreover, under setting [1], the AC50 was 29.1 µM [rising, single point].

As to `O=C1C(c2ccc(F)cc2)N(Cc2ccc3c(c2)OCO3)C(=O)CN1C1CCCCCC1` (stereo not given), the AC50 under setting [2] was 4.11 µM [rising, single point] and the concentration at half-maximal activity (AC50) under setting [1] was 6.51 µM [rising, single point].

`O=C1COc2ccc(NC(=O)N3CCN(c4ccc(F)cc4)CC3)cc2N1`: the cell number change was 12.3%. Further, the half-maximal activity concentration (AC50) under setting [1] is 25.9 µM [rising, single point].

The values are drawn from PubChem BioAssay AID2685 (National Center for Advancing Translational Sciences (NCATS), 2010).
